This note sets out measurements from patent publication US20240254220A1, “COMBINED THERAPY USING ANTI-CD300C ANTIBODY” (CentricsBio, Inc., priority 2021, published 2024).

Amino acid sequences for entries named in this document (tags omitted). A change or cut given only in a name is not applied to a line headed by its entry. Residues count along the entry.
UniProt Q08708, residues 21-183: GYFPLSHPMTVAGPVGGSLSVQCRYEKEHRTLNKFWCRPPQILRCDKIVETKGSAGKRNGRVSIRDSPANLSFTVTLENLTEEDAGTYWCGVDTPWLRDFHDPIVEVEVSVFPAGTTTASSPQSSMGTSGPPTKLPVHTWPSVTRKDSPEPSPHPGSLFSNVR

In experiment [1] the target is CD300c antigen (11832-H08H, Sino Biological) (human) (UniProt Q08708). The experiment can be described thus: binding ELISA on coated CD300c antigen.
The target is the same in experiment [2]. In words: selection ELISA of Example 1.2, scFv periplasmic extract on coated CD300c antigen.

No constants are given. Whether binding was seen depends on the method and setting. Some entries that bind do so weakly or less than the wild type.

B1: SK12 (antibody, V domains shown)
VH: RVQLLESGGGLVQPGGSLRLSCAASGFTFSSYAMHWVRQAPGKGLEWVSAISGSGGDTYHADSVKGRFTISRDNSKNTLYLQMNSLRAEDTAVYYCTRGLSGFDYWGQGTLVTVSS
VL: EIVLTQSPGTLSLSPGERATLSCRASQSISSYLNWYQQKPGQAPRLLIYDASNRAPGIPDRFSGSGSGTDFTLTISRLEPEDFAVYYCQQSYSIPITFGQGTKVEIKF
Regarding B1, the binding entry in experiment [1] and in experiment [2] was “binds” in each case.
